This passage reports binding results from patent US20200199244A1.

Protein sequences, listed by entry. Tags and fused reporters are not part of them. Lines headed by an entry give the natural chain unless they say otherwise; changes in a name come on top.
UniProt P25942: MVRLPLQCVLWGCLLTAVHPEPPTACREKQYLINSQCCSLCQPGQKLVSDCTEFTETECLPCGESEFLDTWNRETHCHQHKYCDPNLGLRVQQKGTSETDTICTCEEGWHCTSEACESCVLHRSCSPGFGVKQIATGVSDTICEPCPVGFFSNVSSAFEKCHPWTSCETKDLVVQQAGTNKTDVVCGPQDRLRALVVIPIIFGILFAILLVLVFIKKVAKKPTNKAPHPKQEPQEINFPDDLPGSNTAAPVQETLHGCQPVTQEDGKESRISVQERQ

Residue numbers refer to the chain shown, from its start. No constants are given. Whether binding was seen depends on the method and setting. Some binding calls cover weakened binding; strength is not graded here.

The target of assay [1] is human CD40 on primary human cells (blood CD20+ B cells, tonsillar B cells, monocyte-derived dendritic cells) (human) (UniProt P25942). Briefly: flow cytometry on human whole blood, anti-PEG detection, gate on CD20+ B cells. In general terms: In flow cytometry, cells or beads pass a laser one at a time.
The target in assay [2] is wild type cynomolgus monkey CD40 Fc fusion (Macaca fascicularis (cynomolgus monkey); human). Briefly: SPR (ProteOn XPR36), dAb over CD40-Fc captured by anti-human IgG(Fc).

B1: BMS3h38-2C-P40Br (protein)
VH: EVQLLASGGGLVQPGGSLRLSCAASGFTFEEEEMIWVRQAPGKGLEWVSAISGSGGSTYYADSVKGRFTISRDNSKNTLYLQMNSLRAEDTAVYYCGKEPFRYDYWGQGTLVTVSS
modifications: PEGylated; attachment residue not stated
In the case of B1, in assay [1], the binding entry was “binds”.

B2: BMS3h-217-5 (protein)
VL: DIQMTQSPSFLSASVGDRVTITCRASHFIATLLSWYQQKPGKAPKLLITYGSLLQSGVPSRFSGSGSGTDFTLTISSLQPEDFATYYCGQGVLWPPTFGQGTKVEIKR
Take B2: the binding entry in assay [2] was “binds”.

B3: BMS3h-217-23 (protein)
VL: B2 VL with F10S, A30G, T31S, Q38V, P96A, K103T
For the molecule B3, the binding entry in assay [2] was “binds”.

B4: BMS3h-217-16 (protein)
VL: B2 VL with F10S, A30G, G41R
Consider B4, for which, in assay [2], the binding result is given as “binds”.
